# Reference: the supplement of paper PMC8728848
# The other results are listed elsewhere or left out.
# B1: GS13971A-bth-447-22-447 (Bacteroides thetaiotaomicron) (protein)
# chain: EDVDNERSKGMFSASQSGFSTIEVYDLGPLNKIDLSIAKAGLEDTGGTVTFSVEQSLLDSLNNADGTSYQLLPPECYTIENATYSVSPGGDRRVTGGSLVYDPHKIYNLCGFDELKYVLPLRVSSTGTPMNSDRTATLYGFIVKEAIVRLASTGGDFVVEGGTTTSPMNLDTEISFENEWDLTTSFATKGADYVDNYNSANSTYYIPLPSDFYTLPDVTIAKGKTTGGSAISLLGETLPPGNYLLPVSLGGLSGQGDASINIDKETVANYFVIKQGGPINRDHWTVTANTEEKTGEVSAAYPHNGQTISLIDGEINTFWHSKWQGGEVAPPYEIILDMGKENSVSQLGLIARQNALTSMNLEIYAGDDGETWNLIGKYFFDGSIKTEQMVPVKACDARWIRIYIPTLGSGSSVGHLAEIYVYGTDK
# How the values were obtained:
# Assay in all cases: glycan array binding signal (z-score within array); higher = stronger binding
# Conditions in all cases: glycan notation: IUPAC condensed, linker removed
# GlcNAc(b1-3)Man = target: GlcNAc(b1-3)Man
# Outline: (§1)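 Columns mapping to the same glycan were averaged after glycan names were converted to IUPAC-condensed notation. The data come from 3228 arrays in the Consortium for Functional Glycomics database, limited to those with an available protein sequence. Binding is reported as a within-array Z-score averaged across arrays of one protein sequence and across linkers.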
# [1] = target: GlcNAc(b1-3)[GlcNAc(b1-4)][GlcNAc(b1-6)]GlcNAc
# Outline: as §1
# [2] = target: GlcNAc(b1-3)[GlcNAc(b1-6)]Gal(b1-4)GlcNAc
# Outline: as §1
# [3] = target: GlcNAc(b1-3)[GlcNAc(b1-6)]GalNAc
# Outline: as §1
# [4] = target: GlcNAc(b1-4)Gal(b1-4)GlcNAc
# Outline: as §1
# GlcNAc(b1-4)GlcNAc = target: GlcNAc(b1-4)GlcNAc
# Outline: as §1
# [5] = target: GlcNAc(b1-4)GlcNAc(b1-4)GlcNAc
# Outline: as §1
# [6] = target: GlcNAc(b1-4)GlcNAc(b1-4)GlcNAc(b1-4)GlcNAc(b1-4)GlcNAc
# Outline: as §1
# [7] = target: GlcNAc(b1-4)GlcNAc(b1-4)GlcNAc(b1-4)GlcNAc(b1-4)GlcNAc(b1-4)GlcNAc
# Outline: as §1
# [8] = target: GlcNAc(b1-4)[GlcNAc(b1-6)]GalNAc
# Outline: as §1
# [9] = target: GlcNAc(b1-6)Gal(b1-4)GlcNAc
# Outline: as §1
# GlcNAc(b1-6)GalNAc = target: GlcNAc(b1-6)GalNAc
# Outline: as §1
# [10] = target: GlcNAc6S(b1-3)Gal(b1-4)GlcNAc
# Outline: as §1
# Kdn(a2-3)Gal(b1-3)GalNAc = target: Kdn(a2-3)Gal(b1-3)GalNAc
# Outline: as §1
# Kdn(a2-3)Gal(b1-3)GlcNAc = target: Kdn(a2-3)Gal(b1-3)GlcNAc
# Outline: as §1
# Kdn(a2-3)Gal(b1-4)Glc = target: Kdn(a2-3)Gal(b1-4)Glc
# Outline: as §1
# Kdn(a2-3)Gal(b1-4)GlcNAc = target: Kdn(a2-3)Gal(b1-4)GlcNAc
# Outline: as §1
# [11] = target: Kdn(a2-3)Gal(b1-4)[Fuc(a1-3)]GlcNAc
# Outline: as §1
# Kdn(a2-6)Gal(b1-4)GlcNAc = target: Kdn(a2-6)Gal(b1-4)GlcNAc
# Outline: as §1
# [12] = target: Man(a1-2)Man(a1-2)Man(a1-3)Man
# Outline: as §1
# [13] = target: Man(a1-2)Man(a1-2)Man(a1-6)[Man(a1-3)]Man
# Outline: as §1
# Man(a1-2)Man(a1-3)Man = target: Man(a1-2)Man(a1-3)Man
# Outline: as §1
# [14] = target: Man(a1-2)Man(a1-3)[Man(a1-2)Man(a1-6)]Man
# Outline: as §1
# [15] = target: Man(a1-2)Man(a1-3)[Man(a1-2)Man(a1-6)]Man(a1-6)[Man(a1-2)Man(a1-2)Man(a1-3)]Man
# Outline: as §1
# [16] = target: Man(a1-2)Man(a1-3)[Man(a1-2)Man(a1-6)]Man(a1-6)[Man(a1-2)Man(a1-2)Man(a1-3)]Man(b1-4)GlcNAc(b1-4)GlcNAc
# Outline: as §1
# [17] = target: Man(a1-2)Man(a1-3)[Man(a1-6)]Man(a1-6)[Man(a1-2)Man(a1-3)]Man(b1-4)GlcNAc(b1-4)GlcNAc
# Outline: as §1
# [18] = target: Man(a1-2)Man(a1-6)[Man(a1-3)]Man(a1-6)[Man(a1-2)Man(a1-2)Man(a1-3)]Man
# Outline: as §1
# [19] = target: Man(a1-2)Man(a1-6)[Man(a1-3)]Man(a1-6)[Man(a1-2)Man(a1-2)Man(a1-3)]Man(b1-4)GlcNAc(b1-4)GlcNAc
# Outline: as §1
# Man(a1-3)[Man(a1-6)]Man = target: Man(a1-3)[Man(a1-6)]Man
# Outline: as §1
# [20] = target: Man(a1-3)[Man(a1-6)]Man(a1-6)[Man(a1-2)Man(a1-3)]Man(b1-4)GlcNAc(b1-4)GlcNAc
# Outline: as §1
# [21] = target: Man(a1-3)[Man(a1-6)]Man(a1-6)[Man(a1-3)]Man
# Outline: as §1
# [22] = target: Man(a1-3)[Man(a1-6)]Man(a1-6)[Man(a1-3)]Man(b1-4)GlcNAc(b1-4)GlcNAc
# Outline: as §1
# [23] = target: Man(a1-3)[Man(a1-6)]Man(b1-4)GlcNAc(b1-4)GlcNAc
# Outline: as §1
# [24] = target: Man(a1-3)[Man(a1-6)]Man(b1-4)GlcNAc(b1-4)[Fuc(a1-6)]GlcNAc
# Outline: as §1
# Man(a1-6)Man = target: Man(a1-6)Man
# Outline: as §1
# Man(b1-4)GlcNAc = target: Man(b1-4)GlcNAc
# Outline: as §1
# MurNAc(b1-4)GlcNAc = target: MurNAc(b1-4)GlcNAc
# Outline: as §1
# Neu5Ac(a2-3)Gal = target: Neu5Ac(a2-3)Gal
# Outline: as §1
binder,measurement,setting,value
B1,glycan array binding signal (z-score),GlcNAc(b1-3)Man,0.122
same,glycan array binding signal (z-score),[1],-0.084
same,glycan array binding signal (z-score),[2],0.279
same,glycan array binding signal (z-score),[3],-0.607
same,glycan array binding signal (z-score),[4],0.013
same,glycan array binding signal (z-score),GlcNAc(b1-4)GlcNAc,0.218
same,glycan array binding signal (z-score),[5],-0.982
same,glycan array binding signal (z-score),[6],-0.605
same,glycan array binding signal (z-score),[7],-0.067
same,glycan array binding signal (z-score),[8],-0.265
same,glycan array binding signal (z-score),[9],2.1
same,glycan array binding signal (z-score),GlcNAc(b1-6)GalNAc,0.156
same,glycan array binding signal (z-score),[10],0.237
same,glycan array binding signal (z-score),Kdn(a2-3)Gal(b1-3)GalNAc,-0.336
same,glycan array binding signal (z-score),Kdn(a2-3)Gal(b1-3)GlcNAc,-0.109
same,glycan array binding signal (z-score),Kdn(a2-3)Gal(b1-4)Glc,-0.455
same,glycan array binding signal (z-score),Kdn(a2-3)Gal(b1-4)GlcNAc,0.345
same,glycan array binding signal (z-score),[11],-0.934
same,glycan array binding signal (z-score),Kdn(a2-6)Gal(b1-4)GlcNAc,-0.762
same,glycan array binding signal (z-score),[12],-0.358
same,glycan array binding signal (z-score),[13],-0.026
same,glycan array binding signal (z-score),Man(a1-2)Man(a1-3)Man,-0.885
same,glycan array binding signal (z-score),[14],-0.699
same,glycan array binding signal (z-score),[15],0.61
same,glycan array binding signal (z-score),[16],-0.776
same,glycan array binding signal (z-score),[17],-0.227
same,glycan array binding signal (z-score),[18],-0.831
same,glycan array binding signal (z-score),[19],-1.17
same,glycan array binding signal (z-score),Man(a1-3)[Man(a1-6)]Man,-0.286
same,glycan array binding signal (z-score),[20],-0.143
same,glycan array binding signal (z-score),[21],-0.459
same,glycan array binding signal (z-score),[22],0.138
same,glycan array binding signal (z-score),[23],0.252
same,glycan array binding signal (z-score),[24],-0.859
same,glycan array binding signal (z-score),Man(a1-6)Man,-0.451
same,glycan array binding signal (z-score),Man(b1-4)GlcNAc,1.75
same,glycan array binding signal (z-score),MurNAc(b1-4)GlcNAc,-0.36
same,glycan array binding signal (z-score),Neu5Ac(a2-3)Gal,-0.342

# Reprinted at random: two entries already listed.
binder,measurement,setting,value
B1,glycan array binding signal (z-score),Man(a1-2)Man(a1-3)Man,-0.885
same,glycan array binding signal (z-score),[23],0.252
